Reference: the supplement of paper PMC11732987, “Enantioselective OTUD7B fragment discovery through chemoproteomics screening and high-throughput optimisation” (Communications Chemistry, 2025)
This is one part of the list. The data scatter; read single values as rough.

Sequences of proteins named here, by UniProt entry; tags and fusion partners are left off. A change or cut given only in a name is not applied to a line headed by its entry. Residues count along the entry.
UniProt Q17RN3: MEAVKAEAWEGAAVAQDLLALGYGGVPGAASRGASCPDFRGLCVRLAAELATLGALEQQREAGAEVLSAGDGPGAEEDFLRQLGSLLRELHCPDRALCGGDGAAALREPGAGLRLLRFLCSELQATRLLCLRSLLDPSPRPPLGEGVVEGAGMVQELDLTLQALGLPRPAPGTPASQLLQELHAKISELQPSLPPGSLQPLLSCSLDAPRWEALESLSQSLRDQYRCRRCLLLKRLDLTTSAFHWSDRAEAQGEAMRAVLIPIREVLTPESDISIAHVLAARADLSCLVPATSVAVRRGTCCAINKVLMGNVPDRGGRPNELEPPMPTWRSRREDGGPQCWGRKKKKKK
UniProt Q9H4H8: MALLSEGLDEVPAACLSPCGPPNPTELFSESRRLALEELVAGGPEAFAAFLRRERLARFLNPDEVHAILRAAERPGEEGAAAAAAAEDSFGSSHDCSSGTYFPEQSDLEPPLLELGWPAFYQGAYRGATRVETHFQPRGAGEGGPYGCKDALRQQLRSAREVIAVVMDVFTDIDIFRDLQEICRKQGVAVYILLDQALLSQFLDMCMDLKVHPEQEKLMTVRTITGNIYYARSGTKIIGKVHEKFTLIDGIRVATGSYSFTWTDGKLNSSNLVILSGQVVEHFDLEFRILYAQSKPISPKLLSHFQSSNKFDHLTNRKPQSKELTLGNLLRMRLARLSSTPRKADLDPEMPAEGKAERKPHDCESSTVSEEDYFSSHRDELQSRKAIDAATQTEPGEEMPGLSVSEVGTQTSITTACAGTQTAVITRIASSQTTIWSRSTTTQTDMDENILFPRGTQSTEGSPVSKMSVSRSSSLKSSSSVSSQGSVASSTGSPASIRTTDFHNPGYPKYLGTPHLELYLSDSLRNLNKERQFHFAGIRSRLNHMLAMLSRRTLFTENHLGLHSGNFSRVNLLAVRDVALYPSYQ
UniProt Q2NKX8: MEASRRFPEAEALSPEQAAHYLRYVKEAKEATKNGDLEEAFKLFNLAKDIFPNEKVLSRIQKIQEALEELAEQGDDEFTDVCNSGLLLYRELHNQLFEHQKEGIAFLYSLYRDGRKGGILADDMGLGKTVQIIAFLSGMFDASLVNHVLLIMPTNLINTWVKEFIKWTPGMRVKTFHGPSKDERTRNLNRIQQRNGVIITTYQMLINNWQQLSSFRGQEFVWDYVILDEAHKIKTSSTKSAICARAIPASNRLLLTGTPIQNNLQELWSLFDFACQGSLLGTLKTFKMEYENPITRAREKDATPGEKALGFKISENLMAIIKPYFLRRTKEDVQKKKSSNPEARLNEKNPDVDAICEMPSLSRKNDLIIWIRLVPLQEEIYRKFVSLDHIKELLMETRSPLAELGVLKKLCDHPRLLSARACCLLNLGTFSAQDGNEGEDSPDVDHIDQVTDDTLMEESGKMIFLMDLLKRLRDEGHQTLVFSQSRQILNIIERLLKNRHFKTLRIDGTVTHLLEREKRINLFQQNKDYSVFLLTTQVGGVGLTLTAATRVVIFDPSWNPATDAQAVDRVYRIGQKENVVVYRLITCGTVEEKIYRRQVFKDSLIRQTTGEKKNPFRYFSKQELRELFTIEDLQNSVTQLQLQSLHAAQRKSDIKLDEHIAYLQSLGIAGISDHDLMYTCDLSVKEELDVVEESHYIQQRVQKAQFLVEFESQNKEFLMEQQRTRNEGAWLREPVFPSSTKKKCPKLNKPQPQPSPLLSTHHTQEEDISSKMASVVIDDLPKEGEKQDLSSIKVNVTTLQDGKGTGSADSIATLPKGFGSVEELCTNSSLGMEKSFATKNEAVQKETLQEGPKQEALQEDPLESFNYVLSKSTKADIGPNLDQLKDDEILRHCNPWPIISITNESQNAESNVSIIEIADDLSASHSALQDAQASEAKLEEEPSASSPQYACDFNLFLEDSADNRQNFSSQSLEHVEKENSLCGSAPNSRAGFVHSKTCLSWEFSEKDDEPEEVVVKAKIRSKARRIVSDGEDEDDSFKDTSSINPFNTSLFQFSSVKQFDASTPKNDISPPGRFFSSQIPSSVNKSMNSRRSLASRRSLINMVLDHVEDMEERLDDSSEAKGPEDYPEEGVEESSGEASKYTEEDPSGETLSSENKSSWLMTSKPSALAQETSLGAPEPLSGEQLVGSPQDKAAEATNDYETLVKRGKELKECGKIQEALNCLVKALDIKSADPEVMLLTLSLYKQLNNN
UniProt Q9H0I2, 171-193: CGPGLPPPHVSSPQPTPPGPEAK
UniProt Q92889, 242-264: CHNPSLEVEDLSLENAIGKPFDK
UniProt Q9BV81: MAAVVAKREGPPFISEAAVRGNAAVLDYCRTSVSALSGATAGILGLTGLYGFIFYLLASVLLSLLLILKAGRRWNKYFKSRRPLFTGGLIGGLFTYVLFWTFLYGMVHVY
UniProt Q9BXW9: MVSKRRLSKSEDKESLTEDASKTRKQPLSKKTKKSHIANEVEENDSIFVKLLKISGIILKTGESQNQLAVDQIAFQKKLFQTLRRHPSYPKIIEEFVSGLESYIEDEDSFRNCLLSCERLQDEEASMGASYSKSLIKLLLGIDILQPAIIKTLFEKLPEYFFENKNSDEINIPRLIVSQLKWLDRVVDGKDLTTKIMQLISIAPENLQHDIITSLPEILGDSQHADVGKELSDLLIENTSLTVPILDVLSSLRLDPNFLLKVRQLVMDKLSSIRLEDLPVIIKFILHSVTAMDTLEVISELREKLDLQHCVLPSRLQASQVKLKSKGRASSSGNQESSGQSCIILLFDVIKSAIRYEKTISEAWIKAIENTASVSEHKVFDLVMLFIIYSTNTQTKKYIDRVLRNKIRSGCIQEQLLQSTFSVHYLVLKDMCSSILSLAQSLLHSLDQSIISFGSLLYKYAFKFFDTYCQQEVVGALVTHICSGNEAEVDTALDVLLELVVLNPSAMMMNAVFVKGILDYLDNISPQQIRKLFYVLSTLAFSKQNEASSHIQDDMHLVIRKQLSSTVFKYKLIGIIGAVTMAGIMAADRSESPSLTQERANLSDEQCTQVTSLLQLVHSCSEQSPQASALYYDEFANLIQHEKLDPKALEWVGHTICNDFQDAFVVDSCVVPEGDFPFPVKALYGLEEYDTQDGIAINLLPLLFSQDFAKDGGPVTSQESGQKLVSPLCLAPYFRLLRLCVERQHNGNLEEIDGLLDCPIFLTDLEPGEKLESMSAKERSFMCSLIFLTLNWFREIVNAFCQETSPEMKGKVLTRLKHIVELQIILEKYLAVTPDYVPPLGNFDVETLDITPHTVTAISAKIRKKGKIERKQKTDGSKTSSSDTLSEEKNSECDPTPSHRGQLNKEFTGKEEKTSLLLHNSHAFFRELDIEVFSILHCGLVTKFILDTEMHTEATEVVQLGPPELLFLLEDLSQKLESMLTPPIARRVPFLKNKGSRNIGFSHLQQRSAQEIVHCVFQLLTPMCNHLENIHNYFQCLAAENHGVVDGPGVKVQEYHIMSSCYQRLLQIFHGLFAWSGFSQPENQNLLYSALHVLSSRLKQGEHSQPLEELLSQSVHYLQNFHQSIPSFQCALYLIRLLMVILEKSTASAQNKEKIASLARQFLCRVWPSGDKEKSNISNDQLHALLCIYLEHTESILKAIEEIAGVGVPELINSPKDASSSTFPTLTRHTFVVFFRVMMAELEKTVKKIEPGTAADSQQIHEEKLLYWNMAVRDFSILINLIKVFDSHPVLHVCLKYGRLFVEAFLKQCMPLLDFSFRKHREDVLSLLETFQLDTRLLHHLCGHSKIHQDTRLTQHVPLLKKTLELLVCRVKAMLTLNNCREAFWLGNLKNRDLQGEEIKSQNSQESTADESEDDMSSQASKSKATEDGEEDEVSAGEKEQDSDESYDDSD
UniProt Q8TAV0: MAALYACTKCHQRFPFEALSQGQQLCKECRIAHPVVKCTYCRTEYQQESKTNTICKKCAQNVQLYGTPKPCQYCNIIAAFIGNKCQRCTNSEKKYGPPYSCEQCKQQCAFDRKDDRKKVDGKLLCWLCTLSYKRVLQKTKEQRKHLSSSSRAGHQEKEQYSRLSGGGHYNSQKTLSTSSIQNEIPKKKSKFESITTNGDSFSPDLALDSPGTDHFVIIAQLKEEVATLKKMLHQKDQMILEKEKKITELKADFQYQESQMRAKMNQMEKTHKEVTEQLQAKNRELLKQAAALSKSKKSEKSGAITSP
UniProt Q96CS3: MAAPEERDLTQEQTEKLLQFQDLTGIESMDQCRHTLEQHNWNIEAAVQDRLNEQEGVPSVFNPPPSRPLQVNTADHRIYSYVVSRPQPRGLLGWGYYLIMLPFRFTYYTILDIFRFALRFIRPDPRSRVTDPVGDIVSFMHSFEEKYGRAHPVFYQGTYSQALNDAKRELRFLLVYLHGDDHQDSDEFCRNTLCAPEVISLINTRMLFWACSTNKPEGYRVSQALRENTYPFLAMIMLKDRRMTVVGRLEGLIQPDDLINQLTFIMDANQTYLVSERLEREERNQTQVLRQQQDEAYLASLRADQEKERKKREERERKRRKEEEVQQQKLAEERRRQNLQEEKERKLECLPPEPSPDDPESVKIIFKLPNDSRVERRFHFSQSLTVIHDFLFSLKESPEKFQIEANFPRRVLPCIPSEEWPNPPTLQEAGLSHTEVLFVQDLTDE
UniProt Q9NQT4, whole entry, looked up: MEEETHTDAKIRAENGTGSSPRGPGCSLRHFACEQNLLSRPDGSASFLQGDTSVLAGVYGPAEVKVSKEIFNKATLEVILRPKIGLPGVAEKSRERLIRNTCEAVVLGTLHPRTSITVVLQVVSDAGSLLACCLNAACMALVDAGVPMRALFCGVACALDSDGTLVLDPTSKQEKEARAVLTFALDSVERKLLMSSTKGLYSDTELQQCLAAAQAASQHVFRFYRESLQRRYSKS
UniProt Q9BS26: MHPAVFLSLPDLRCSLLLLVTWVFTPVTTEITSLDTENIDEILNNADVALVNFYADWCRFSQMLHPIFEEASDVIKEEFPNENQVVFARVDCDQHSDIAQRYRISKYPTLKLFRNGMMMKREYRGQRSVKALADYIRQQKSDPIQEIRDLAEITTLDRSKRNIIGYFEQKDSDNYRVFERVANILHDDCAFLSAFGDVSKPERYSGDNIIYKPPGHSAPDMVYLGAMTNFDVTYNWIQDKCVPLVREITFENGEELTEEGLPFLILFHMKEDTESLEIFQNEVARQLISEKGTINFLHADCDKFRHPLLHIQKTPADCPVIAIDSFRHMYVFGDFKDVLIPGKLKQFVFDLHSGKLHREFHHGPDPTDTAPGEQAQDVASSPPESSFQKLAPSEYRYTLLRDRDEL
UniProt Q92520: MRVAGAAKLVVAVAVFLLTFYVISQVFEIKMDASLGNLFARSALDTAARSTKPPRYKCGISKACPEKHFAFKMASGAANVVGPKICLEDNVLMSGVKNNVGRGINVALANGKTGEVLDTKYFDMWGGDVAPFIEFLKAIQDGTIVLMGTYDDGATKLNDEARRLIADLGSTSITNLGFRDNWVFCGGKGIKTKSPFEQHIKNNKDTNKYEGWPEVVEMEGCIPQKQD
UniProt Q15024, 71-96: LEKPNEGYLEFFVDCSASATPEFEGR
UniProt Q9BYI3: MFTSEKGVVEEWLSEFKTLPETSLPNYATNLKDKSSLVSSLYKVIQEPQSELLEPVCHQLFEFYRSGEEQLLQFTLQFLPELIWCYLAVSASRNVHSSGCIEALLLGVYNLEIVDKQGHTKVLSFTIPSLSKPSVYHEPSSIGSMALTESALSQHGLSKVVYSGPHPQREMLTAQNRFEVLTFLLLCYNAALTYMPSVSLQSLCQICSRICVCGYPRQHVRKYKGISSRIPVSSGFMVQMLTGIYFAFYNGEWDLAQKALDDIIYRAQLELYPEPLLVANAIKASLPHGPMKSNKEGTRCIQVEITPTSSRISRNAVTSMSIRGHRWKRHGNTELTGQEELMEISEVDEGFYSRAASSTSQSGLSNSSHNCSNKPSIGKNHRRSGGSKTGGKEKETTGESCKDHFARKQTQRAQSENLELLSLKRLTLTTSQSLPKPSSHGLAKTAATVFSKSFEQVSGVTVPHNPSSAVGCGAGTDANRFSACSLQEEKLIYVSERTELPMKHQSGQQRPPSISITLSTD
UniProt Q6P1L5: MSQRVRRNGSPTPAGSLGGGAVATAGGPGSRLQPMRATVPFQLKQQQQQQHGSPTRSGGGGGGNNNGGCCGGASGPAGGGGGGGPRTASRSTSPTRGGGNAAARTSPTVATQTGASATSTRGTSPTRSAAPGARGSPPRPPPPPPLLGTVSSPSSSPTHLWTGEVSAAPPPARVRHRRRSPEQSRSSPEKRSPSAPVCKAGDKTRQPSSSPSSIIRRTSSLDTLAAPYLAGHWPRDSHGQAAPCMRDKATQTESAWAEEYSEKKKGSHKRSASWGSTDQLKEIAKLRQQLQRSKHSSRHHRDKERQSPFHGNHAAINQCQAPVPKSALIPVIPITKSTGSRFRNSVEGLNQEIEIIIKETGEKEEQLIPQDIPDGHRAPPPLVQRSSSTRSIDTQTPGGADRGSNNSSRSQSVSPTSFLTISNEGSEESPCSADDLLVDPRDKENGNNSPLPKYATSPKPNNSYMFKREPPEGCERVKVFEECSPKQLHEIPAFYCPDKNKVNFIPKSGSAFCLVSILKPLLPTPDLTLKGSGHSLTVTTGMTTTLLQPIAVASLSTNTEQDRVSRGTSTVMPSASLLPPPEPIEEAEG

compound: ClCC(=O)N[C@H]1CCCc2ccccc12; experiment: log2 mean competition ratio of IA-DTB cysteine labelling (DMSO/compound) (log2 ratio); higher = stronger cysteine engagement by compound; details: 200 µM; treatment time: 4 h; cell line lysate: HEK293T
Method: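 IA-DTB competitive cysteine chemoproteomics in HEK293T RIPA lysate. Lysates were treated with compound 29 or 30 at 50 or 200 µM for 4 h, then IA-DTB (500 µM, 1 h), trypsin-digested, NeutrAvidin-enriched and analysed by diaPASEF. Competition ratio = intensity DMSO / intensity compound (n=4 treated, n=64 DMSO); binding: mean log2 CR ≥ 1 and p ≤ 0.05 plus QC filters. Target is the cysteine site.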

**Q.** With FAM8A1 C38 (UniProt Q9UBU6) as the target, how does the “log2 mean competition ratio” value read?
**A.** -0.149

**Q.** Which “log2 mean competition ratio” value does the source give for FAM98C C340 (UniProt Q17RN3) here?
**A.** 0.139

**Q.** With ERAP1 C498 (UniProt Q9NZ08) as the target, how does the “log2 mean competition ratio” value read?
**A.** 0.192

**Q.** How did the “log2 mean competition ratio” value turn out when FAM83D C148 (UniProt Q9H4H8) was run?
**A.** 0.148

**Q.** For EML3 C816 (UniProt Q32P44), which “log2 mean competition ratio” value is on record?
**A.** -0.128

**Q.** How did the “log2 mean competition ratio” value turn out when ERCC6L C356 (UniProt Q2NKX8) was run?
**A.** -0.0351

**Q.** ENKD1 C171 (UniProt Q9H0I2) was tested. Which “log2 mean competition ratio” value did it give?
**A.** -0.122

**Q.** ERCC4 C242 (UniProt Q92889) was tested. Which “log2 mean competition ratio” value did it give?
**A.** -0.196

**Q.** Which “log2 mean competition ratio” value does the source give for EMC6 C29 (UniProt Q9BV81) here?
**A.** 0.00651

**Q.** How did the “log2 mean competition ratio” value turn out when FANCD2 C893 (UniProt Q9BXW9) was run?
**A.** -0.0697

**Q.** How did the “log2 mean competition ratio” value turn out when FAM136A C53 (UniProt Q96C01) was run?
**A.** 0.529

**Q.** With EPB41 C179 as the target, how does the “log2 mean competition ratio” value read?
**A.** 0.104

**Q.** For FAM76A C7 (UniProt Q8TAV0), which “log2 mean competition ratio” value is on record?
**A.** 0.0894

**Q.** Which “log2 mean competition ratio” value does the source give for FANCI C594 (UniProt Q9NVI1) here?
**A.** -0.042

**Q.** With FAF2 C194 (UniProt Q96CS3) as the target, how does the “log2 mean competition ratio” value read?
**A.** 0.0344

**Q.** Which “log2 mean competition ratio” value does the source give for EPS8 C331 here?
**A.** -0.0216

**Q.** For ELMO1 C561 (UniProt Q92556), which “log2 mean competition ratio” value is on record?
**A.** 0.228

**Q.** EXOSC5 C26 (UniProt Q9NQT4) was tested. Which “log2 mean competition ratio” value did it give?
**A.** 0.0548

**Q.** Which “log2 mean competition ratio” value does the source give for ERCC2 C588 (UniProt P18074) here?
**A.** -0.0733

**Q.** ERP44 C92 (UniProt Q9BS26) was tested. Which “log2 mean competition ratio” value did it give?
**A.** -0.132

**Q.** How did the “log2 mean competition ratio” value turn out when EXPH5 C1081 was run?
**A.** 0.0381

**Q.** With ENPP1 C6 as the target, how does the “log2 mean competition ratio” value read?
**A.** 0.431

**Q.** Which “log2 mean competition ratio” value does the source give for EXOC1 C650 (UniProt Q9NV70) here?
**A.** 0.000319

**Q.** How did the “log2 mean competition ratio” value turn out when FAM3C C185 (UniProt Q92520) was run?
**A.** 0.23

**Q.** For FANCI C56 (UniProt Q9NVI1), which “log2 mean competition ratio” value is on record?
**A.** -0.00856

**Q.** How did the “log2 mean competition ratio” value turn out when ERCC4 C176 (UniProt Q92889) was run?
**A.** 0.23

**Q.** Which “log2 mean competition ratio” value does the source give for EMILIN3 C700 here?
**A.** 0.222

**Q.** EXOSC7 C85 (UniProt Q15024) was tested. Which “log2 mean competition ratio” value did it give?
**A.** 0.0782

**Q.** How did the “log2 mean competition ratio” value turn out when EXOC3 C150 (UniProt O60645) was run?
**A.** 0.812

**Q.** Which “log2 mean competition ratio” value does the source give for FAM185A C106 (UniProt Q8N0U4) here?
**A.** 0.13

**Q.** With EPRS1 C660 as the target, how does the “log2 mean competition ratio” value read?
**A.** -0.104

**Q.** FAM126A C300 (UniProt Q9BYI3) was tested. Which “log2 mean competition ratio” value did it give?
**A.** -0.0418

**Q.** For FAM117B C244 (UniProt Q6P1L5), which “log2 mean competition ratio” value is on record?
**A.** 0.14

**Q.** Which “log2 mean competition ratio” value does the source give for ERC1 C258 here?
**A.** 0.0117

**Q.** FAM120A C694 was tested. Which “log2 mean competition ratio” value did it give?
**A.** 0.239

**Q.** With ERCC6L C1222 (UniProt Q2NKX8) as the target, how does the “log2 mean competition ratio” value read?
**A.** -0.0552

**Q.** How did the “log2 mean competition ratio” value turn out when ERCC3 C342 (UniProt P19447) was run?
**A.** 0.644
